These are yes or no findings as the source states them, for the method shown. Binding seen in cells or lysates may run through a third protein. Some binding calls cover weakened binding; strength is not graded here.

By UniProt entry, the sequences of proteins in these tests, tags left out.
UniProt Q16613: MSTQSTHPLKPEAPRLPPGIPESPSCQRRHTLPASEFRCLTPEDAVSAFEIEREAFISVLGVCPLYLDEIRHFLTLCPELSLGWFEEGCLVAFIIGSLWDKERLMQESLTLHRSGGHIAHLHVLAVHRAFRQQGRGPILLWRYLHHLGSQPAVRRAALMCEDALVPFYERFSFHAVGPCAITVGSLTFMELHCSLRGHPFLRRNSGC

Assay [1] deals with T1, acetylserotonin O-methyltransferase (human (endogenous in platelets)) (UniProt P46597).
T1 sequence: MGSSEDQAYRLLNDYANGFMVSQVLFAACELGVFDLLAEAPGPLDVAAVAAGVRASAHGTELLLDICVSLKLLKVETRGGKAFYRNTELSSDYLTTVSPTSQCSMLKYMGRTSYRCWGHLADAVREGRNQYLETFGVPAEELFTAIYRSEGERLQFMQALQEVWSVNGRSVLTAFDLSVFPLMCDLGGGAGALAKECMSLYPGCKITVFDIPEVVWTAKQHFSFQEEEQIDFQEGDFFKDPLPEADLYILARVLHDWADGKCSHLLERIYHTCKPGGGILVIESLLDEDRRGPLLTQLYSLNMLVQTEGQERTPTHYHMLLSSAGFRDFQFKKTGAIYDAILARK
Nature of the assay: co-IP + native MS.

In assay [2] the target is aralkylamine N-acetyltransferase (human (endogenous in platelets)) (UniProt Q16613). Nature of the assay: co-IP + native MS.

In the case of “aralkylamine N-acetyltransferase (from UniProt Q16613 1-207) (enzyme)”, the binding result in assay [1] is on record as “binds”.

B1: acetylserotonin O-methyltransferase (enzyme, UniProt P46597 1-345)
chain: MGSSEDQAYRLLNDYANGFMVSQVLFAACELGVFDLLAEAPGPLDVAAVAAGVRASAHGTELLLDICVSLKLLKVETRGGKAFYRNTELSSDYLTTVSPTSQCSMLKYMGRTSYRCWGHLADAVREGRNQYLETFGVPAEELFTAIYRSEGERLQFMQALQEVWSVNGRSVLTAFDLSVFPLMCDLGGGAGALAKECMSLYPGCKITVFDIPEVVWTAKQHFSFQEEEQIDFQEGDFFKDPLPEADLYILARVLHDWADGKCSHLLERIYHTCKPGGGILVIESLLDEDRRGPLLTQLYSLNMLVQTEGQERTPTHYHMLLSSAGFRDFQFKKTGAIYDAILARK
For the molecule B1, the binding entry in assay [2] is given as “binds”.

The values are drawn from article doi:10.1101/2024.05.30.596635.
